Assay results as given in US20250129076A1, “FUSED TETRACYCLIC COMPOUNDS, COMPOSITIONS AND DIAGNOSTIC APPLICATIONS THEREOF” (priority 2021, published 2025).
No dose or concentration is given here for some results.

Test system: live/Fixed cell
Experiment: Comparison with commonly available DNA staining agents: cell staining performance (Table 3)
Format: cell-based

With `N=C(N)c1ccc(-c2cc3ccc(C(=N)N)cc3[nH]2)cc1` [DAPI] the “Speed (Incubation)” value was 15 to 30 min.
